These are literature values, as cited in PMC9405973, “Altered Conformational Landscape upon Sensing Guanine Nucleotides in a Disease Mutant of Elongation Factor-like 1 (EFL1) GTPase” (Biomolecules, 2022).

This data set concerns wild-type Efl1•Sdo1. On the set-up: method as in PMID 30780079. The settings on record: −Mg^2+, 30 °C; cited from earlier work.

On to `Nc1nc2c(ncn2[C@@H]2O[C@H](COP(=O)(O)OP(=O)(O)O)[C@@H](O)[C@H]2O)c(=O)[nH]1` [GDP], for which the “Nconfres (number of residues changing conformation, absolute value)” value was 58; the “Nconfrotb (number of routable bonds changing conformation, absolute value)” value is recorded as 96; the ΔCpconf is on record as −610 cal mol^−1 K^−1; the ΔCprb is on record as −30 (−30) cal mol^−1 K^−1. Also, the ΔSb is −5 cal mol^−1 K^−1, the ΔSconf is −161 cal mol^−1 K^−1, the ΔSsolv is 164 cal mol^−1 K^−1 and the “−ΔASAconf” value is given as 2738 Å^2.

In the case of `Nc1nc2c(ncn2[C@@H]2O[C@H](COP(=O)(O)OP(=O)(O)OP(=O)(O)O)[C@@H](O)[C@H]2O)c(=O)[nH]1` [GTP], the “Nconfres (number of residues changing conformation, absolute value)” value is reported as 8; the “Nconfrotb (number of routable bonds changing conformation, absolute value)” value was 0; the ΔCpconf is given as −79 cal mol^−1 K^−1; the ΔCprb is −11 (−11) cal mol^−1 K^−1. In addition, the ΔSb was 16 cal mol^−1 K^−1, the ΔSconf is 0 cal mol^−1 K^−1, the ΔSsolv is reported as 23 cal mol^−1 K^−1 and the “−ΔASAconf” value was 355 Å^2.
